This is an account of results in patent US20240108740A1, “THERAPEUTIC COMPOSITIONS INCLUDING SPN10 AND USES THEREOF” (Stealth BioTherapeutics Inc., priority 2022, published 2024).

For this data set, the system named is high-fat fed rats. The data set can be described thus: Example 33: ROS production and redox state in rats fed a high-fat diet. Format: in vivo, rat.

Residues, ends and D or L forms follow the SMILES beside them.

As to `N=C(N)NCCC[C@H](NC(=O)[C@@H](N)Cc1c[nH]c2ccccc12)C(=O)N[C@@H](Cc1c[nH]c2ccccc12)C(=O)N[C@@H](CCCCN)C(N)=O` [SPN10, H-L-Trp-L-Arg-L-Trp-L-Lys-NH2] (H-WRWK-NH2), the “basal rates of pyruvate/malate- or palmitoyl-carnitine-supported respiration” value was “unaffected”.
